{"source": "paper PMC4653730", "target": "LexA-C58VirFmut (Agrobacterium tumefaciens C58-C1)", "experiment": "two-hybrid; yeast strain L40 co-transformed with LexA fusions (pSTT91) and Gal4AD fusions (pGAD424); interaction read as histidine prototrophy, growth on SD-Leu-Trp-His, 2-3 days at 28 °C", "note": "No constants are given. Whether binding was seen depends on the method and setting.", "data": [{"binder": "Gal4AD-VIP1 (protein, UniProt Q9MA75 1-341) MEGGGRGPNQTILSEIEHMPEAPRQRISHHRRARSETFFSGESIDDLLLFDPSDIDFSSLDFLNAPPPPQQSQQQPQASPMSVDSEETSSNGVVPPNSLPPKPEARFGRHVRSFSVDSDFFDDLGVTEEKFIATSSGEKKKGNHHHSRSNSMDGEMSSASFNIESILASVSGKDSGKKNMGMGGDRLAELALLDPKRAKRILANRQSAARSKERKIRYTGELERKVQTLQNEATTLSAQVTMLQRGTSELNTENKHLKMRLQALEQQAELRDALNEALRDELNRLKVVAGEIPQGNGNSYNRAQFSSQQSAMNQFGNKTNQQMSTNGQPSLPSYMDFTKRG", "values": [{"measurement": "binding", "result": "no binding"}]}]}
